The campaign covered roughly 390,000 compounds. About 910 (0.23%) were called active. Inconclusive means that the source gave no clear call. Such entries were picked first, then a sample of the others. The call rests on the fitted dose curve; in most records, active means well fitted inhibition curve with a large enough effect; inconclusive means small, poorly fitted or top-dose-only effect; inactive means no such curve, though single readings can be large or run the other way. A potency beside an inconclusive call is a rough fit, not a confirmed value.
biological target: Ubiquitin carboxyl-terminal hydrolase 1 (Homo sapiens) (UniProt O94782); assay: Inhibitors of USP1/UAF1: Primary Screen; details: recombinant USP1/UAF1, Ub-Rhodamine cleavage fluorescence; activity change, negative = inhibition: at 57.1 µM (top of the series); further: nearly all actives have a fitted effect of over 60% in size
Procedure, shortened: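 High-throughput fluorogenic screen: 1nM USP1/UAF1 complex, Ub-Rho substrate 150nM final, 50mM HEPES pH 7.8 with 0.5mM EDTA, 0.1 mg/ml BSA, 1mM TCEP and 0.01% Tween-20.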
On the % scale 0 is the no-effect control and ±100 the full control effect; potency means the concentration at half of the fitted maximal effect.

By UniProt entry, the sequences of proteins in these tests, tags left out. Where a name states a change or a piece, a line headed by the entry shows the natural chain unless it says otherwise.
UniProt O94782: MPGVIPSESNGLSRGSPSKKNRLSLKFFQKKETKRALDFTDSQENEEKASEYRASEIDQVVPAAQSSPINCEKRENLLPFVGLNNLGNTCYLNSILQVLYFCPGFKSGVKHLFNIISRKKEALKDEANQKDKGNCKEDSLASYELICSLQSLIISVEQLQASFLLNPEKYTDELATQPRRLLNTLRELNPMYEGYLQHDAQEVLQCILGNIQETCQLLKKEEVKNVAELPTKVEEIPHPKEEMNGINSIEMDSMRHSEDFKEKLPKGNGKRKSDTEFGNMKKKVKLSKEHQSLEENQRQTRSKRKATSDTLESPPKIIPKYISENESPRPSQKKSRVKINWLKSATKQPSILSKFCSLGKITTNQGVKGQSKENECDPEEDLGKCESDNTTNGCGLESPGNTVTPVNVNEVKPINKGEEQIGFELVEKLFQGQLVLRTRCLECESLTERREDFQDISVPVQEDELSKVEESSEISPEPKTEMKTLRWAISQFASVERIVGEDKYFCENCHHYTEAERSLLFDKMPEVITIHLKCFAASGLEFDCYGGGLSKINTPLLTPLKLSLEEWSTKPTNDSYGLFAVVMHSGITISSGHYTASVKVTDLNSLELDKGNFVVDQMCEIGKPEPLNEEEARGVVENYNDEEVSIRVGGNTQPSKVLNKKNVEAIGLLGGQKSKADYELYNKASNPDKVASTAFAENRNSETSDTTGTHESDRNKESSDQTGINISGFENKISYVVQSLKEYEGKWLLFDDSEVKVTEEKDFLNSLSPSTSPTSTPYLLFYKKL

Potency, inconclusive:
COC(=O)CC1=C(c2ccc([N+](=O)[O-])cc2)CCC1=O 7.08 µM [inhibitor, single point]
COc1ccc(NC(=O)CCNC(=O)c2ccco2)cc1Cl 50.1 µM [inhibitor, single point]
O=C(NC(=S)NCc1cccnc1)c1ccccc1F 1.58 µM [inhibitor, full curve]
Cc1c(CCC(=O)NCc2ccc(F)cc2)c(=O)oc2cc(O)ccc12 0.708 µM [inhibitor, full curve, poor fit]
CCCCCCCCCCCCCCCC[n+]1cccc2ccccc21 35.5 µM [inhibitor, partial curve]
CCCn1c2ccc(F)cc2c2nnc(NN)nc21 39.8 µM [inhibitor, partial curve]
c1ccc(CSc2nnc(-c3ccco3)c(-c3ccco3)n2)cc1 50.1 µM [inhibitor, single point]
c1ccc(Oc2ccccn2)cc1 4.47 µM [inhibitor, full curve, poor fit]
Cc1c(CCC(=O)O)c(=O)oc2cc3occ(-c4ccc(Cl)cc4)c3cc12 35.5 µM [inhibitor, partial curve]
O=c1c(-c2ccc(F)cc2)coc2cc(O)ccc12 22.4 µM [inhibitor, partial curve]
COc1ccc(N2CCN(C(=O)CSc3nc4ccccc4nc3Cc3ccc(Cl)cc3)CC2)cc1 0.0501 µM [inhibitor, full curve, poor fit]
COc1cccc(OC)c1C(=O)NC(=S)Nc1ccc(N2CCOCC2)c(Cl)c1 7.94 µM [inhibitor, partial curve, poor fit]
CCOC(=O)c1cc2sccc2n1CC(=O)N1CCCC1 0.794 µM [inhibitor, full curve]
COc1ccc(C)cc1NC(=O)c1ccc2nc(Cc3ccccc3)oc2c1 25.1 µM [inhibitor, single point]
CCOCCCNC(=O)CN1C(=O)c2cccnc2Sc2ccccc21 3.98 µM [inhibitor, partial curve]

Arranged by length of the SMILES (falling): 3 of the compounds above.
Potency, inconclusive:
COc1ccc(N2CCN(C(=O)CSc3nc4ccccc4nc3Cc3ccc(Cl)cc3)CC2)cc1 0.0501 µM [inhibitor, full curve, poor fit]
CCCCCCCCCCCCCCCC[n+]1cccc2ccccc21 35.5 µM [inhibitor, partial curve]
CCCn1c2ccc(F)cc2c2nnc(NN)nc21 39.8 µM [inhibitor, partial curve]

Following part.

Activity change, negative = inhibition, inactive:
CCOc1ccc(CC(=O)NCCS(=O)(=O)N2CCN(c3ccc(OC)cc3)CC2)cc1 -8.64%
Cc1c(C(=O)NCCc2ccc(Cl)cc2)cccc1-n1cnc2cccnc21 -9.74%
COc1ccccc1-c1nnc(SCC(=O)Nc2cccnc2Cl)n1C -18.2%
CC1CN(C(=O)COC(=O)c2cnc(Cl)c(Cl)c2)CC(C)O1 (centres undefined) -13.6%

From PubChem BioAssay AID743255 (National Center for Advancing Translational Sciences (NCATS), 2014)
